Experimental data: US20080208039A1, “System and method of performing therapeutic endovascular interventions” (Wisconsin Alumni Research Foundation, priority 2007, published 2008)
At least one compound was matched to its structure with a doubt left.

Assay: Diffusion of a fluorescent probe in swollen gelatin gel by FRAP
Type: physicochemical
Conditions: room temperature
Source text: To assess the stability of DTPA[Gd(III)] in the gelatin coating, the diffusion of a fluorescence probe in gelatin was studied by the technique of fluorescence recovery after photobleaching (FRAP). The instrument and data analysis scheme are described in Kim, S. H. and Yu, H., J. Phys. Chem. 1992, 96, 4034, which is hereby fully incorporated by reference. Fluorescein was used as the fluorescence probe due, in part, to its molecular size being roughly the same as that of DTPA[Gd(III)].
The focus of the study was to examine the possible retardation effects of gelatin concentration and cross-link density on the diffusion, which was determined at room temperature, i.e., below the gel point of gelatin. The diffusion of fluorescein probe slows down with the increase of gelatin concentration. The diffusion coefficient decreases from 1.5×10-10 to 9×10-12 m2s-1 when the concentration of gelatin increases from 9% to 40%. […] Accordingly, the probe diffusion is more likely controlled by the concentration of gelatin rather than the cross-link density. On the other hand, the cross-link density may determine the swelling ratio of gelatin, i.e., the concentration of gelatin in aqueous solution. […]

O=C1OC2(c3ccc(O)cc3Oc3cc(O)ccc32)c2ccccc21 [fluorescein]
diffusion coefficient in gelatin (gelatin concentration 9%): 1.5×10-10 m2s-1 | diffusion coefficient in gelatin (gelatin concentration 40%): 9×10-12 m2s-1
